These results are taken from article PMC4871701.

Sequences of proteins named here, by UniProt entry; tags and fusion partners are left off.
UniProt P49597: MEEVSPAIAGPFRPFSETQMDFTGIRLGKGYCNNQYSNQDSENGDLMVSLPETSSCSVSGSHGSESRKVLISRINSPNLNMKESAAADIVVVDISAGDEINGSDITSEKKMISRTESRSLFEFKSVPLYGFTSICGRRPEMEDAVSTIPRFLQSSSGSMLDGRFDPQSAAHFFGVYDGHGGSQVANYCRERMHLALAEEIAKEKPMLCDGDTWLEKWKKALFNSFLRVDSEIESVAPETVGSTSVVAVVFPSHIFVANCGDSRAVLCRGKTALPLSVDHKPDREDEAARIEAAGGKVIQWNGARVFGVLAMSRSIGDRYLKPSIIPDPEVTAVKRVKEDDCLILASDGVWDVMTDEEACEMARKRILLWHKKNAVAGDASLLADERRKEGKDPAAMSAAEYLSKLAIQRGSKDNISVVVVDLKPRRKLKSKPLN

Assay [1] deals with T1, RopGEF1 (yeast two-hybrid bait fusion) (Arabidopsis thaliana) (UniProt Q93ZY2).
T1 sequence: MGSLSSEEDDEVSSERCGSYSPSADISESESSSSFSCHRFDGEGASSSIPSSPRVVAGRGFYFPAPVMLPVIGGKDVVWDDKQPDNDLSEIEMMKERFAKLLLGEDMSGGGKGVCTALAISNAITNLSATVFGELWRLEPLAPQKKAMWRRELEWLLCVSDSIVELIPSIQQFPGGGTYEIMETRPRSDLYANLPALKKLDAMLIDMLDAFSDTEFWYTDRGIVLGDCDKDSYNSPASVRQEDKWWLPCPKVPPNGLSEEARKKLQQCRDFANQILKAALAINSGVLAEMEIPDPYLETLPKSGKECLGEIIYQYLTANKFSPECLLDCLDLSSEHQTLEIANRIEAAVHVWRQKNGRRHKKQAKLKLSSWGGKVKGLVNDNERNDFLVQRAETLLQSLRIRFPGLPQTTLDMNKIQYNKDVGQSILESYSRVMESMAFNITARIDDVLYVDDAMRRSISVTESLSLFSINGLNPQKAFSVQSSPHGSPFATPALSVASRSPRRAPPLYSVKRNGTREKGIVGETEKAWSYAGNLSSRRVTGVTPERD
In words: two-hybrid; yeast pJ69-4A; growth on -L-W-H with 5 mM 3-AT for 6 d.

In assay [2] the target is T2, Flag-GFP-GEF1 (Arabidopsis thaliana) (UniProt Q93ZY2).
T2 sequence: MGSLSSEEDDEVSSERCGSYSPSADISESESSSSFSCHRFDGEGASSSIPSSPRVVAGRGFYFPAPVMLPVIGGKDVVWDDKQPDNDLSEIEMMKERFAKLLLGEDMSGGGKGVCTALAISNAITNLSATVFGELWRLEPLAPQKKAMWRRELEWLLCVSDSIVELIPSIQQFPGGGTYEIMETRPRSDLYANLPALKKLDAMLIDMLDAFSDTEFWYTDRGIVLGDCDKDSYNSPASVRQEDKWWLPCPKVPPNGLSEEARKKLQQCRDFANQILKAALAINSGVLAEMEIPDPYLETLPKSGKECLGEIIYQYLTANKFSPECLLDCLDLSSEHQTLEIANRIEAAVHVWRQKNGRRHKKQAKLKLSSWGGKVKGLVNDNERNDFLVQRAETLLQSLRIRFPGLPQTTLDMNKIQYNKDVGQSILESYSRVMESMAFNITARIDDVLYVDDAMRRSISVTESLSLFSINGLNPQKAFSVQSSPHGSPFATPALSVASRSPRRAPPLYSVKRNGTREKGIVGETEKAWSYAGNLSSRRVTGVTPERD
In words: co-IP; Flag-GFP-GEF1 and myc-mCherry-PP2C co-expressed in N. benthamiana leaves; lysate precipitated with anti-flag magnetic beads, 4 h at 4°C; blots with anti-flag and anti-myc.

Assay [3] addresses ABI1 (yeast two-hybrid fusion) (Arabidopsis thaliana) (UniProt P49597). Description: two-hybrid; yeast PJ69-4A, USER-modified pGBT9 and pGADGH; growth on SD-L-W-H with 3 mM 3-AT for 6 d; ABI1/PYL1 without ABA.

Results are given in words; binding and its absence hold for the method and conditions named. For some assays here: Binding seen in cells or lysates may run through a third protein. Some results given as binding are weak or reduced against the parent protein; the word gives no strength. Where a sequence is shown, tags or fusion partners need not be part of it.

B1: HAI1 (yeast two-hybrid fusion) (enzyme, UniProt Q9FIF5 1-413)
chain: MAEICYENETMMIETTATVVKKATTTTRRRERSSSQAARRRRMEIRRFKFVSGEQEPVFVDGDLQRRRRRESTVAASTSTVFYETAKEVVVLCESLSSTVVALPDPEAYPKYGVASVCGRRREMEDAVAVHPFFSRHQTEYSSTGFHYCGVYDGHGCSHVAMKCRERLHELVREEFEADADWEKSMARSFTRMDMEVVALNADGAAKCRCELQRPDCDAVGSTAVVSVLTPEKIIVANCGDSRAVLCRNGKAIALSSDHKPDRPDELDRIQAAGGRVIYWDGPRVLGVLAMSRAIGDNYLKPYVISRPEVTVTDRANGDDFLILASDGLWDVVSNETACSVVRMCLRGKVNGQVSSSPEREMTGVGAGNVVVGGGDLPDKACEEASLLLTRLALARQSSDNVSVVVVDLRRDT
B1: the binding entry in assay [1] was “binds”.

B2: myc-mCherry-HAI1 (enzyme, UniProt Q9FIF5 1-413)
chain: MAEICYENETMMIETTATVVKKATTTTRRRERSSSQAARRRRMEIRRFKFVSGEQEPVFVDGDLQRRRRRESTVAASTSTVFYETAKEVVVLCESLSSTVVALPDPEAYPKYGVASVCGRRREMEDAVAVHPFFSRHQTEYSSTGFHYCGVYDGHGCSHVAMKCRERLHELVREEFEADADWEKSMARSFTRMDMEVVALNADGAAKCRCELQRPDCDAVGSTAVVSVLTPEKIIVANCGDSRAVLCRNGKAIALSSDHKPDRPDELDRIQAAGGRVIYWDGPRVLGVLAMSRAIGDNYLKPYVISRPEVTVTDRANGDDFLILASDGLWDVVSNETACSVVRMCLRGKVNGQVSSSPEREMTGVGAGNVVVGGGDLPDKACEEASLLLTRLALARQSSDNVSVVVVDLRRDT
In the case of B2, the binding result in assay [2] is “binds”.

B3: AHG1 (yeast two-hybrid fusion) (enzyme, UniProt Q9FLI3 1-416)
chain: MTEIYRTISTGRGDDVSPTKCRERRRRRIEMRRQAAVFGEPSSSRNRDRTDMEVYSSFDVPLRKQARRSEIGGLPADIGGFLAPPAASSCQKSEAPVWKGEETEDEPLYGIVSVMGRSRKMEDSVTVKPNLCKPEVNRQRPVHFFAVYDGHGGSQVSTLCSTTMHTFVKEELEQNLEEEEEGSENDVVERKWRGVMKRSFKRMDEMATSTCVCGTSVPLCNCDPREAAISGSTAVTAVLTHDHIIVANTGDSRAVLCRNGMAIPLSNDHKPDRPDERARIEAAGGRVLVVDGARVEGILATSRAIGDRYLKPMVAWEPEVTFMRRESGDECLVLASDGLWDVLSSQLACDIARFCLREETPSSLDLNRMAQEDDNDGEQNPSRSVLAATLLTRLALGRQSSDNISVVVIDLKNSSQ
Turning to B3, the binding result in assay [1] is on record as “binds”.

B4: myc-mCherry-AHG1 (enzyme, UniProt Q9FLI3 1-416)
chain: MTEIYRTISTGRGDDVSPTKCRERRRRRIEMRRQAAVFGEPSSSRNRDRTDMEVYSSFDVPLRKQARRSEIGGLPADIGGFLAPPAASSCQKSEAPVWKGEETEDEPLYGIVSVMGRSRKMEDSVTVKPNLCKPEVNRQRPVHFFAVYDGHGGSQVSTLCSTTMHTFVKEELEQNLEEEEEGSENDVVERKWRGVMKRSFKRMDEMATSTCVCGTSVPLCNCDPREAAISGSTAVTAVLTHDHIIVANTGDSRAVLCRNGMAIPLSNDHKPDRPDERARIEAAGGRVLVVDGARVEGILATSRAIGDRYLKPMVAWEPEVTFMRRESGDECLVLASDGLWDVLSSQLACDIARFCLREETPSSLDLNRMAQEDDNDGEQNPSRSVLAATLLTRLALGRQSSDNISVVVIDLKNSSQ
In the case of B4, in assay [2], the binding result is “binds”.

B5: RCAR1/PYL9 (yeast two-hybrid fusion) (receptor, UniProt Q84MC7 1-187)
chain: MMDGVEGGTAMYGGLETVQYVRTHHQHLCRENQCTSALVKHIKAPLHLVWSLVRRFDQPQKYKPFVSRCTVIGDPEIGSLREVNVKSGLPATTSTERLELLDDEEHILGIKIIGGDHRLKNYSSILTVHPEIIEGRAGTMVIESFVVDVPQGNTKDETCYFVEALIRCNLKSLADVSERLASQDITQ
With B5, the binding entry in assay [3] was “binds”.
